Changes are numbered by the printed parent chain. Results are given in words; binding and its absence hold for the method and conditions named. In cells and extracts the contact can be indirect. Some binding calls cover weakened binding; strength is not graded here.
How the values were obtained:
Experiment in all cases: co-IP; HA-CPSF4 and FLAG-tagged PAPα forms co-expressed in HeLa cells, about 48 h; lysis buffer 50 mM Tris-HCl pH 7.5, 150 mM NaCl, 10% glycerol, 0.5% NP-40; affinity gel, 4°C, 3-4 h; Western blot; in one panel lysates with or without RNase A
PAPα^△644–745aa (human) = target: T1, PAPα^△644–745aa (human) (UniProt P51003)
T1 sequence: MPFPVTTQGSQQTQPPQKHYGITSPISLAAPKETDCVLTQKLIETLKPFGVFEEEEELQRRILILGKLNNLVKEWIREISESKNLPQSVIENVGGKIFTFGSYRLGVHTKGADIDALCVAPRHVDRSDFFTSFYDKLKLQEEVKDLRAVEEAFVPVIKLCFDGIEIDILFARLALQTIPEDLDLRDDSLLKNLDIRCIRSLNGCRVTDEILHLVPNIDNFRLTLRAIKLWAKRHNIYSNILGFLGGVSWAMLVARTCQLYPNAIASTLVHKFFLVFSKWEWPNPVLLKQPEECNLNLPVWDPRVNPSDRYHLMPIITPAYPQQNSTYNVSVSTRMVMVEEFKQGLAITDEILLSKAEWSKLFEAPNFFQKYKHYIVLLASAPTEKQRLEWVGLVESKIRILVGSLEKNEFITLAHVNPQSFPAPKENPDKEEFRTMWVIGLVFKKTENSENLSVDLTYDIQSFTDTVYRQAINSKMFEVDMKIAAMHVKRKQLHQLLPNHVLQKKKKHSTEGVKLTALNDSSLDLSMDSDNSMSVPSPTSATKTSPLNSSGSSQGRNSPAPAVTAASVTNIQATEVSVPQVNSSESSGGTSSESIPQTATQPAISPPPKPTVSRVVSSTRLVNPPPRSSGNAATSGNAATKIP

The chains behind the UniProt entries cited, without tags or fusion partners.
UniProt O95639: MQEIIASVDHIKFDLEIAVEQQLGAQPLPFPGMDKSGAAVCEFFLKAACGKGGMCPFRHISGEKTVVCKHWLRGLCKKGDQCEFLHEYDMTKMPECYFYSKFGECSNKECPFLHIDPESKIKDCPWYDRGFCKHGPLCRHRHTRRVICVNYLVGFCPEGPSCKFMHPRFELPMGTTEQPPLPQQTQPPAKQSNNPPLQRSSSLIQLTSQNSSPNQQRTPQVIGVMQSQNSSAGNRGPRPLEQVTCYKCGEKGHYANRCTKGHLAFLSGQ

PAPα^△496–643aa (human) = target: T2, PAPα^△496–643aa (human) (UniProt P51003)
T2 sequence: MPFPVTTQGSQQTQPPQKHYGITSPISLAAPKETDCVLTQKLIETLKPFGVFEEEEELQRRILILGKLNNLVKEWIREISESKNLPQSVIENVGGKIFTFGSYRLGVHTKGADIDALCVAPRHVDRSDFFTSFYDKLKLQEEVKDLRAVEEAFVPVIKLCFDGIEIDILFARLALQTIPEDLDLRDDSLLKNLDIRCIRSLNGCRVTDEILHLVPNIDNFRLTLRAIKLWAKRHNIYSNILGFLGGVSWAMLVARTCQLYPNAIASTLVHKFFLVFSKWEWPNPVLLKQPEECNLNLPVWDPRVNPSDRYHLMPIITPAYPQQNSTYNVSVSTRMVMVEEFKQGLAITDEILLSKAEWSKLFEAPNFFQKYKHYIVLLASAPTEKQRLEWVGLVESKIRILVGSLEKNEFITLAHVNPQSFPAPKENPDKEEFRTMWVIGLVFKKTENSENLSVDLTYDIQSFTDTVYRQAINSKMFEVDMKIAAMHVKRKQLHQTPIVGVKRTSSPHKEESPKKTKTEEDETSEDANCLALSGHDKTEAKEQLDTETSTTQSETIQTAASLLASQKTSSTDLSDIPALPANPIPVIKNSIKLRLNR

[1] = target: T3, PAPα^3SD (phosphorylation-mimicking PAPα; S537, S545 and S558 mutated to Asp) (human) (UniProt P51003)
T3 sequence: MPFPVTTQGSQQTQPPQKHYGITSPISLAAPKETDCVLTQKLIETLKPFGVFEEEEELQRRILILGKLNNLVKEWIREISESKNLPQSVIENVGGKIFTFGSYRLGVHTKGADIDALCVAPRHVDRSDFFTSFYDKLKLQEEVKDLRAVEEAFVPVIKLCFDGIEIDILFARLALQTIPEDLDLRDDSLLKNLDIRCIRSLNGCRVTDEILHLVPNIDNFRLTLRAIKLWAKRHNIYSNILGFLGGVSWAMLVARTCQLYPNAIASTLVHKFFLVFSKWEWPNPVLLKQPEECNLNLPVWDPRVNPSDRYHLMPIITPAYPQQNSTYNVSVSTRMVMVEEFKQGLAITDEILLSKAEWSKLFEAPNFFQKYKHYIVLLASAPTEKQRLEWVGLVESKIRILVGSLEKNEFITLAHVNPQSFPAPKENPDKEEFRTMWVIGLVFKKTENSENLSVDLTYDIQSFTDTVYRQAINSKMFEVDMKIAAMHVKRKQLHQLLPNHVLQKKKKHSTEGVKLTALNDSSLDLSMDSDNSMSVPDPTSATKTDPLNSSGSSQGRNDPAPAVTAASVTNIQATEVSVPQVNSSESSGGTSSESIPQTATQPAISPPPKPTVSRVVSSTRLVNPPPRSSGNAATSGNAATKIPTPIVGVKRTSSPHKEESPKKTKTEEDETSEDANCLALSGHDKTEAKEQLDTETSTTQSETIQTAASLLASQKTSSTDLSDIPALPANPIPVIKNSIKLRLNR

[2] = target: FLAG-tagged human poly(A) polymerase α (PAPα), wild type (human) (UniProt P51003)
[3] = target: T4, PAPα^3SA (S537, S545 and S558 mutated to Ala) (human) (UniProt P51003)
T4 sequence: T3 sequence with D537A, D545A, D558A

Measured: binding

HA-tagged human CPSF4 (from UniProt O95639 1-269)
binds: all assays above

From article PMC8191758
